{"source": "PubChem BioAssay AID602346", "about": "(Broad Institute, 2012)", "note": "Out of some 340,000 compounds screened, about 1,200 (0.35%) were called active. Inconclusive means that the source gave no clear call. Such entries were picked first, then a sample of the others. No stated cut-off is given here; in the data, active means inhibition above about 50% (passing the limit was not always enough); inconclusive means no clear call, values can overlap the other calls; inactive means below about 31%."}
{"experiment": "blockers of Vif multimerization in cells – imaging, HEK293T, single point, primary screen (AID 602346)", "details": "Vif self-association by quenched fluorescence, 24 h, at 7.49 µM, hits give high values"}
{"smiles": "COc1cc(-c2cnc3c(NC(C)=O)cc(-c4ccccc4CN(C)C)cn23)cc(OC)c1OC", "inhibition": "inconclusive: 46.4%"}
{"smiles": "COCCN(C(=O)CCC(=O)Nc1nccs1)C(C(=O)NC(C)(C)C)c1ccc(C)cc1", "note": "(centres undefined)", "inhibition": "active: 84.2%"}
{"smiles": "Cc1ccc(C2(C)NC(=O)N(CC(=O)N3CC(=O)Nc4ccccc43)C2=O)cc1", "note": "(centres undefined)", "inhibition": "inconclusive: 40%"}
{"smiles": "CC[C@@]1(C(=O)OC)N[C@H](CN(C)C(=O)COC)[C@@H]2C(=O)N(Cc3ccccc3)C(=O)[C@@H]21", "inhibition": "inconclusive: 42.6%"}
{"smiles": "CCN(CC)c1ccc(/C=N/N=C(N)N)c(O)c1", "inhibition": "active: 64.6%"}
{"smiles": "CN(Cc1ccccc1)C(=O)C1CCN(S(=O)(=O)c2ccc3nc4c(c(C(=O)O)c3c2)CCCC4)CC1", "inhibition": "active: 68.9%"}
{"smiles": "Cc1ccc(C(=O)Oc2ccc(N3C(=O)CCC3=O)c(C)c2)cc1", "inhibition": "inconclusive: 34.1%"}
{"smiles": "Cc1c(NC(=O)C(C)OC(=O)c2sc3ccccc3c2Cl)c(=O)n(-c2ccccc2)n1C", "note": "(centres undefined)", "inhibition": "active: 108%"}
{"smiles": "CCOC(=O)Nc1ccc2c(c1)ncn2C1CCCCC1", "inhibition": "active: 81.6%"}
{"smiles": "Cc1cc(NC(=O)COc2ccc3ccccc3c2Br)no1", "inhibition": "inconclusive: 42%"}
{"smiles": "CCC(CC)NC(=O)Cn1c(C(C)NC(C)=O)nc2ccccc21", "note": "(centres undefined)", "inhibition": "inconclusive: 35.4%"}
{"smiles": "COc1ccc(CNS(=O)(=O)NCc2ccccc2)cc1OC", "inhibition": "inconclusive: 29.5%"}
{"smiles": "O=C(CCCN1C(=O)/C(=C\\c2cccc(Br)c2)SC1=S)Nc1ccc(C(=O)O)cc1", "inhibition": "active: 77.1%"}
{"smiles": "CSc1cccc(N2CC(C(=O)NCCC3=CCCCC3)CC2=O)c1", "note": "(centres undefined)", "inhibition": "active: 65.7%"}
{"smiles": "CCOC(=O)c1cnn(CCOC(=O)c2cccc(F)c2)c1NC(=O)c1cccc(F)c1", "inhibition": "inconclusive: 30.1%"}
{"smiles": "CC(=O)Nc1c(C#N)c(C(C)(C)C)cn1C", "inhibition": "inconclusive: 40%"}
{"smiles": "COc1ccccc1C1(CC(=O)N2CCOCC2)CCOC(C(C)C)C1", "note": "(centres undefined)", "inhibition": "inconclusive: 31%"}
{"smiles": "CC(C)C(=O)N1CCN(c2ccc(NC(=O)c3ccc([N+](=O)[O-])o3)cc2)CC1", "inhibition": "inconclusive: 46.9%"}
{"smiles": "CC[C@@H](C)[C@H](CNC)NC[C@@H](Cc1cccc2ccccc12)NCCc1cccc(C(F)(F)F)c1", "inhibition": "inconclusive: 24.3%"}
{"smiles": "CC[C@]1(O)C[C@@H]2CN(CCc3c([nH]c4ccccc34)[C@@](C(=O)OC)(c3cc4c(cc3OC)N(C)[C@H]3[C@@](O)(C(=O)OC)[C@H](OC(C)=O)[C@]5(CC)C=CCN6CC[C@]43[C@@H]65)C2)C1", "inhibition": "active: 79.8%"}
{"smiles": "CCC(C)NC(=O)C1CCN(S(=O)(=O)c2cccc3nonc23)CC1", "note": "(centres undefined)", "inhibition": "inconclusive: 45.2%"}
{"smiles": "CC(=O)Nc1ccc(NC(=O)c2ccc(OCc3c(C)noc3C)cc2)cc1", "inhibition": "active: 60.4%"}
{"smiles": "N#Cc1ccc(C(=O)NNC(=O)c2cccc(S(=O)(=O)N3CCOCC3)c2)cc1", "inhibition": "inconclusive: 42.9%"}
{"smiles": "Cc1c(C(=O)Nc2ccc(OCc3ccccc3)cc2)cccc1[N+](=O)[O-]", "inhibition": "inconclusive: 33.3%"}
{"smiles": "Cc1nc2nc(-c3ccco3)[nH]n2c(=O)c1Cc1ccccc1", "inhibition": "inconclusive: 40.1%"}
{"smiles": "COc1ccc(/C=C/C(=O)c2c(C)nc3ccccn23)cc1", "inhibition": "inactive: -10.1%"}
{"smiles": "COc1ccc(CCC(=O)Nc2ccc(S(=O)(=O)Nc3nccc(C)n3)cc2)cc1", "inhibition": "inconclusive: 35.5%"}
{"smiles": "CC(=O)Nc1ccc(NC(=O)COC(=O)COc2ccc3ccccc3c2)cc1", "inhibition": "inactive: 22.7%"}
{"smiles": "CC(OC(=O)CN1C(=O)NC2(CCCC2)C1=O)c1ccc(F)cc1", "note": "(centres undefined)", "inhibition": "inconclusive: 41%"}
{"smiles": "CCOC(=O)N1CCN(S(=O)(=O)c2ccc3c(c2)CCN3C(=O)CC)CC1", "inhibition": "inconclusive: 34%"}
{"smiles": "CC(C)(C)c1ccc(OCC(=O)NC2CCS(=O)(=O)C2)cc1", "note": "(centres undefined)", "inhibition": "inconclusive: 43.8%"}
{"smiles": "O=S(=O)(Nc1ccccc1-c1ccccc1)c1ccccc1", "inhibition": "inconclusive: 29.7%"}
{"smiles": "CCc1noc(C)c1C(=O)N1CCCC(CCC(=O)NCc2ccc(F)c(F)c2)C1", "note": "(centres undefined)", "inhibition": "inactive: 7.28%"}
{"smiles": "Cc1cc(C)cc(NC(=O)C/C(N)=N/O)c1", "inhibition": "inconclusive: 33.3%"}
{"smiles": "Cc1ccccc1COn1nnc2ccc(S(=O)(=O)N3CCOCC3)cc21", "inhibition": "inconclusive: 26.6%"}
{"smiles": "CCCc1cc(=O)oc2cc(OCc3cc(OC)c(OC)c(OC)c3)c(Cl)cc12", "inhibition": "active: 106%"}
{"smiles": "CCCc1cc(=O)oc2c3c(cc(OCC(=O)NCC4CCC(C(=O)O)CC4)c12)OC(C)(C)CC3", "note": "(centres undefined)", "inhibition": "inconclusive: 36.4%"}
{"smiles": "CC1CCCN(CCC(=O)Nc2ccc(F)c(F)c2)C1", "note": "(centres undefined)", "inhibition": "inconclusive: 35.4%"}
{"smiles": "CC(=O)c1ccc(OCc2cc(=O)n3ccsc3n2)cc1", "inhibition": "inactive: 15.9%"}
{"smiles": "NS(=O)(=O)c1ccc(NC(=O)COC(=O)CCCN2C(=O)c3cccc4cccc(c34)C2=O)cc1", "inhibition": "inconclusive: 31.5%"}
{"smiles": "C=CCC1(CC=C)CCCN1C(=O)C1CCC(=O)N(CCc2ccccc2)C1", "note": "(centres undefined)", "inhibition": "inconclusive: 35.8%"}
{"smiles": "Oc1ccccc1C1SC(c2ccccc2O)SC(c2ccccc2O)S1", "note": "(centres undefined)", "inhibition": "active: 59.5%"}
{"smiles": "CC(C)Oc1cccc(C(=O)NC(=S)Nc2cccc(NC(=O)c3ccccc3Cl)c2)c1", "inhibition": "inactive: 5.05%"}
{"smiles": "O=C(COc1ccc(S(=O)(=O)N2CCCC2)cc1)NCc1ccco1", "inhibition": "inconclusive: 45.9%"}
{"smiles": "Cn1cc(S(=O)(=O)N2CCCC2)cc1C(=O)NCc1ccc(F)cc1", "inhibition": "inconclusive: 28.8%"}
{"smiles": "Cc1ccc(NC(=O)c2ccc(CNc3c(N4CCC(C)CC4)c(=O)c3=O)cc2)cc1", "inhibition": "inconclusive: 25.6%"}
{"smiles": "CC(OC(=O)c1c[nH]c2ccccc12)C(=O)N1CCCC1", "note": "(centres undefined)", "inhibition": "active: 63.8%"}
{"smiles": "CCOc1cc(/C=N/NC(=O)c2ccc3c(c2)OCCO3)cc(Br)c1O", "inhibition": "inconclusive: 43.3%"}
{"smiles": "CCN(CC)C(=O)c1sc2nc(-c3cccs3)cc(-c3ccc(Cl)cc3)c2c1N", "inhibition": "inconclusive: 40.4%"}
{"smiles": "Cc1cccc(C(=O)NCCC(=O)NCc2ccccc2Cl)c1", "inhibition": "active: 53.6%"}
{"smiles": "Cc1ccc(C2=NNC(C(O)C(O)C(O)CO)S2)cc1", "note": "(centres undefined)", "inhibition": "inconclusive: 18.6%"}
{"smiles": "COc1cc(OC)cc(C(=O)NNC(=O)c2ccc3c(c2)OCCO3)c1", "inhibition": "inactive: 14.3%"}
{"smiles": "O=C(NCc1ccco1)c1ccc(S(=O)(=O)N2CCOCC2)cc1", "inhibition": "inconclusive: 35.5%"}
{"smiles": "COc1cccc(C(=O)NN2C(=O)C3C4C=CC(O4)C3C2=O)c1", "note": "(centres undefined)", "inhibition": "inconclusive: 30%"}
